1 compound from US7867750B2, “Method for anaerobic degradation of fuel oxygenates and similar compounds” (Rutgers, The State University of New Jersey, priority 2006, dated 2011) can be followed below.

No dose or concentration is given here for some results. Bounds are passed on as bounds.

For this data set, the system named is MTBE-utilizing culture. As to the kind of experiment: Effect of methoxylated aromatic compounds as co-substrates on MTBE utilization. The data set is classed as cell-based. Particulars: MTBE as sole substrate.

As for `COC(C)(C)C` [MTBE, Methyl tert-butyl ether], the “incubation time after which MTBE utilization is observed” value is 90 days and the “time for MTBE concentration to decrease to below detection limit” value was at most 150 days.
